# This is one part of the list.
# Columns and labels:
# Test in all cases: glycan array binding signal (z-score within array); higher = stronger binding
# Details in all cases: glycan notation: IUPAC condensed, linker removed
# [1] = target: Neu5Ac(a2-6)Gal(b1-4)GlcNAc(b1-3)Gal(b1-4)GlcNAc(b1-3)Gal(b1-4)GlcNAc(b1-2)Man(a1-3)[Neu5Ac(a2-6)Gal(b1-4)GlcNAc(b1-3)Gal(b1-4)GlcNAc(b1-3)Gal(b1-4)GlcNAc(b1-2)Man(a1-6)]GalNAc
# Method in brief: (§1)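 The binding signal is a Z-score computed within each array. Data were drawn from 3228 arrays in the Consortium for Functional Glycomics database, restricted to those with a known protein sequence. Scores were averaged over arrays of the same protein sequence at different concentrations or buffers, and over linkers, and negative values can be taken as non-binding.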
# [2] = target: Neu5Ac(a2-6)Gal(b1-4)GlcNAc(b1-3)Gal(b1-4)GlcNAc(b1-3)GalNAc
# Method in brief: as §1
# [3] = target: Neu5Ac(a2-6)Gal(b1-4)GlcNAc(b1-3)Gal(b1-4)GlcNAc(b1-3)[Neu5Ac(a2-6)Gal(b1-4)GlcNAc(b1-3)Gal(b1-4)GlcNAc(b1-6)]GalNAc
# Method in brief: as §1
# [4] = target: Neu5Ac(a2-6)Gal(b1-4)GlcNAc(b1-3)Gal(b1-4)GlcNAc(b1-6)[Gal(b1-3)]GalNAc
# Method in brief: as §1
# [5] = target: Neu5Ac(a2-6)Gal(b1-4)GlcNAc(b1-3)Gal(b1-4)[Fuc(a1-3)]GlcNAc(b1-3)Gal(b1-4)[Fuc(a1-3)]GlcNAc
# Method in brief: as §1
# [6] = target: Neu5Ac(a2-6)Gal(b1-4)GlcNAc(b1-3)GalNAc
# Method in brief: as §1
# [7] = target: Neu5Ac(a2-6)Gal(b1-4)GlcNAc(b1-3)[Neu5Ac(a2-6)Gal(b1-4)GlcNAc(b1-6)]GalNAc
# Method in brief: as §1
# [8] = target: Neu5Ac(a2-6)Gal(b1-4)GlcNAc(b1-6)GalNAc
# Method in brief: as §1
# [9] = target: Neu5Ac(a2-6)Gal(b1-4)GlcNAc(b1-6)[Gal(b1-3)GlcNAc(b1-3)]Gal(b1-4)Glc
# Method in brief: as §1
# [10] = target: Neu5Ac(a2-6)Gal(b1-4)GlcNAc(b1-6)[Gal(b1-3)]GalNAc
# Method in brief: as §1
# [11] = target: Neu5Ac(a2-6)Gal(b1-4)GlcNAc6S
# Method in brief: as §1
# Neu5Ac(a2-6)GalNAc = target: Neu5Ac(a2-6)GalNAc
# Method in brief: as §1
# [12] = target: Neu5Ac(a2-6)GalNAc(b1-4)GlcNAc
# Method in brief: as §1
# [13] = target: Neu5Ac(a2-6)GalNAc(b1-4)GlcNAc6S
# Method in brief: as §1
# [14] = target: Neu5Ac(a2-6)GlcNAc(b1-4)GlcNAc
# Method in brief: as §1
# [15] = target: Neu5Ac(a2-6)GlcNAc(b1-4)GlcNAc(b1-4)GlcNAc
# Method in brief: as §1
# Neu5Ac(a2-8)Neu5Ac = target: Neu5Ac(a2-8)Neu5Ac
# Method in brief: as §1
# [16] = target: Neu5Ac(a2-8)Neu5Ac(a2-3)Gal(b1-3)GalNAc(b1-4)[Neu5Ac(a2-3)]Gal(b1-4)Glc
# Method in brief: as §1
# [17] = target: Neu5Ac(a2-8)Neu5Ac(a2-3)Gal(b1-3)GalNAc(b1-4)[Neu5Ac(a2-8)Neu5Ac(a2-3)]Gal(b1-4)Glc
# Method in brief: as §1
# [18] = target: Neu5Ac(a2-8)Neu5Ac(a2-3)Gal(b1-4)Glc
# Method in brief: as §1
# [19] = target: Neu5Ac(a2-8)Neu5Ac(a2-3)Gal(b1-4)GlcNAc
# Method in brief: as §1
# [20] = target: Neu5Ac(a2-8)Neu5Ac(a2-3)[Gal(b1-3)GalNAc(b1-4)]Gal(b1-4)Glc
# Method in brief: as §1
# [21] = target: Neu5Ac(a2-8)Neu5Ac(a2-3)[GalNAc(b1-4)]Gal(b1-4)Glc
# Method in brief: as §1
# [22] = target: Neu5Ac(a2-8)Neu5Ac(a2-8)Neu5Ac
# Method in brief: as §1
# [23] = target: Neu5Ac(a2-8)Neu5Ac(a2-8)Neu5Ac(a2-3)Gal(b1-4)Glc
# Method in brief: as §1
# [24] = target: Neu5Ac(a2-8)Neu5Ac(a2-8)Neu5Ac(a2-3)[Gal(b1-3)GalNAc(b1-4)]Gal(b1-4)Glc
# Method in brief: as §1
# [25] = target: Neu5Ac(a2-8)Neu5Ac(a2-8)Neu5Ac(a2-3)[GalNAc(b1-4)]Gal(b1-4)Glc
# Method in brief: as §1
# [26] = target: Neu5Ac(a2-8)Neu5Ac(a2-8)Neu5Ac(a2-8)Neu5Ac(a2-3)[GalNAc(b1-4)]Gal(b1-4)Glc
# Method in brief: as §1
# [27] = target: Neu5Ac(a2-8)Neu5Gc(a2-3)Gal(b1-4)GlcNAc
# Method in brief: as §1
# [28] = target: Neu5Ac(b2-6)Gal(b1-4)GlcNAc
# Method in brief: as §1
# Neu5Ac(b2-6)GalNAc = target: Neu5Ac(b2-6)GalNAc
# Method in brief: as §1
# [29] = target: Neu5Ac9Ac(a2-3)Gal(b1-3)GlcNAc
# Method in brief: as §1
# [30] = target: Neu5Ac9Ac(a2-3)Gal(b1-4)GlcNAc
# Method in brief: as §1
# [31] = target: Neu5Ac9Ac(a2-6)Gal(b1-4)GlcNAc
# Method in brief: as §1
# [32] = target: Neu5Gc(a2-3)Gal(b1-3)GlcNAc
# Method in brief: as §1
# [33] = target: Neu5Gc(a2-3)Gal(b1-3)[Fuc(a1-4)]GlcNAc
# Method in brief: as §1
# Neu5Gc(a2-3)Gal(b1-4)Glc = target: Neu5Gc(a2-3)Gal(b1-4)Glc
# Method in brief: as §1
# [34] = target: Neu5Gc(a2-3)Gal(b1-4)GlcNAc
# Method in brief: as §1
# [35] = target: Neu5Gc(a2-3)Gal(b1-4)GlcNAc(b1-3)Gal(b1-4)GlcNAc(b1-2)Man(a1-3)[Neu5Gc(a2-3)Gal(b1-4)GlcNAc(b1-3)Gal(b1-4)GlcNAc(b1-2)Man(a1-6)]Man(b1-4)GlcNAc(b1-4)GlcNAc
# Method in brief: as §1
# [36] = target: Neu5Gc(a2-3)Gal(b1-4)[Fuc(a1-3)]GlcNAc
# Method in brief: as §1
# [37] = target: Neu5Gc(a2-6)Gal(b1-4)GlcNAc
# Method in brief: as §1
# Neu5Gc(a2-6)GalNAc = target: Neu5Gc(a2-6)GalNAc
# Method in brief: as §1
# [38] = target: Neu5Gc(a2-8)Neu5Ac(a2-3)Gal(b1-4)GlcNAc
# Method in brief: as §1
# [39] = target: Neu5Gc(a2-8)Neu5Gc(a2-3)Gal(b1-4)GlcNAc
# Method in brief: as §1
# [40] = target: Neu5Gc(a2-8)Neu5Gc(a2-3)Gal(b1-4)GlcNAc(b1-3)Gal(b1-4)GlcNAc
# Method in brief: as §1
# [41] = target: Neu5Gc(a2-8)Neu5Gc(a2-6)Gal(b1-4)GlcNAc
# Method in brief: as §1
# [42] = target: Neu5Gc(b2-6)Gal(b1-4)GlcNAc
# Method in brief: as §1
binder,measurement,setting,value
"OS9-MRH (Homo sapiens), Q13438 (protein) IPELLSPMRDAPCLLKTKDWWTYEFCYGRHIQQYHMEDSEIKGEVLYLGYYQSAFDWDDETAKASKQHRLKRYHSQTYGNGSKCDLNGRPREAEVRFLCDEGAGISGDYIDRVDEPLSCSYVLTIRTPRLCPHPLLRPPPSAAPQAI",glycan array binding signal (z-score),[1],1.3
same,glycan array binding signal (z-score),[2],-0.436
same,glycan array binding signal (z-score),[3],0.501
same,glycan array binding signal (z-score),[4],-0.293
same,glycan array binding signal (z-score),[5],-0.99
same,glycan array binding signal (z-score),[6],-0.745
same,glycan array binding signal (z-score),[7],-1.59
same,glycan array binding signal (z-score),[8],-1.14
same,glycan array binding signal (z-score),[9],1.74
same,glycan array binding signal (z-score),[10],-0.081
same,glycan array binding signal (z-score),[11],-0.552
same,glycan array binding signal (z-score),Neu5Ac(a2-6)GalNAc,-1
same,glycan array binding signal (z-score),[12],5.26
same,glycan array binding signal (z-score),[13],0.453
same,glycan array binding signal (z-score),[14],1.28
same,glycan array binding signal (z-score),[15],0.725
same,glycan array binding signal (z-score),Neu5Ac(a2-8)Neu5Ac,-1.08
same,glycan array binding signal (z-score),[16],1.84
same,glycan array binding signal (z-score),[17],-0.356
same,glycan array binding signal (z-score),[18],0.038
same,glycan array binding signal (z-score),[19],-0.225
same,glycan array binding signal (z-score),[20],-0.02
same,glycan array binding signal (z-score),[21],0.717
same,glycan array binding signal (z-score),[22],0.308
same,glycan array binding signal (z-score),[23],0.1
same,glycan array binding signal (z-score),[24],-0.657
same,glycan array binding signal (z-score),[25],-1.22
same,glycan array binding signal (z-score),[26],-0.452
same,glycan array binding signal (z-score),[27],0.36
same,glycan array binding signal (z-score),[28],0.205
same,glycan array binding signal (z-score),Neu5Ac(b2-6)GalNAc,-0.664
same,glycan array binding signal (z-score),[29],-0.055
same,glycan array binding signal (z-score),[30],-0.03
same,glycan array binding signal (z-score),[31],-1.41
same,glycan array binding signal (z-score),[32],-1.05
same,glycan array binding signal (z-score),[33],0.763
same,glycan array binding signal (z-score),Neu5Gc(a2-3)Gal(b1-4)Glc,-0.393
same,glycan array binding signal (z-score),[34],0.032
same,glycan array binding signal (z-score),[35],-0.52
same,glycan array binding signal (z-score),[36],-0.22
same,glycan array binding signal (z-score),[37],1.49
same,glycan array binding signal (z-score),Neu5Gc(a2-6)GalNAc,1.14
same,glycan array binding signal (z-score),[38],1.12
same,glycan array binding signal (z-score),[39],1.77
same,glycan array binding signal (z-score),[40],-0.961
same,glycan array binding signal (z-score),[41],-0.866
same,glycan array binding signal (z-score),[42],-1.24

# Reprinted at random: four records from the list
binder,measurement,setting,value
"OS9-MRH (Homo sapiens), Q13438 (protein) IPELLSPMRDAPCLLKTKDWWTYEFCYGRHIQQYHMEDSEIKGEVLYLGYYQSAFDWDDETAKASKQHRLKRYHSQTYGNGSKCDLNGRPREAEVRFLCDEGAGISGDYIDRVDEPLSCSYVLTIRTPRLCPHPLLRPPPSAAPQAI",glycan array binding signal (z-score),[4],-0.293
same,glycan array binding signal (z-score),[15],0.725
same,glycan array binding signal (z-score),[2],-0.436
same,glycan array binding signal (z-score),[9],1.74

# From the supplement of paper PMC8728848
